These are yes or no findings as the source states them, for the method shown. Tags and fused reporters may be left off the sequences shown.
T1: WT KcsA (K channel of streptomyces A), full-length, with N-terminal His-tag (Streptomyces lividans) (UniProt P0A334)
T1 sequence: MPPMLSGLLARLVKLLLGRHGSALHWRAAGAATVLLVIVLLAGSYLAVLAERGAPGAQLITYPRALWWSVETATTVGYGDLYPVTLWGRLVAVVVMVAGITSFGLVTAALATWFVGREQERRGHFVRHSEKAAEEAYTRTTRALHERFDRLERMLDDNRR


Molecular target: T1, WT KcsA (K channel of streptomyces A), full-length, with N-terminal His-tag (Streptomyces lividans)
Assay: ELISA; both purified

Binder | binding
TVIDVKCTSPKQCLPPCKAQFGIRAGAKCMNGKCKCYPH (peptide, UniProt P59847 1-39) [Hongotoxin-1 displayed on M13 phage as a fusion to the P3 coat protein] | no binding
GVEINVKCSGSPQCLKPCKDAGMRFGKCMNRKCHCTPK (peptide, UniProt P24662 1-38) [Kaliotoxin-1 displayed on M13 phage as a fusion to the P3 coat protein] | no binding

— publication PMC11002876, “KcsA-Kv1.x chimeras with complete ligand-binding sites provide improved predictivity for screening selective Kv1.x blockers” (The Journal of Biological Chemistry, 2024)
